Experimental data as given in patent publication US20160271149A1, “[…] COMPOUNDS THAT […] PROTEIN ARGININE […] ACTIVITY FOR REDUCING TUMOR CELL PROLIFERATION” (Epinova Therapeutics Corp., priority 2015, published 2016).
Some of these results come from one statement about several compounds together.

Sequences of proteins named here, by UniProt entry; tags and fusion partners are left off.
UniProt O14744, whole entry: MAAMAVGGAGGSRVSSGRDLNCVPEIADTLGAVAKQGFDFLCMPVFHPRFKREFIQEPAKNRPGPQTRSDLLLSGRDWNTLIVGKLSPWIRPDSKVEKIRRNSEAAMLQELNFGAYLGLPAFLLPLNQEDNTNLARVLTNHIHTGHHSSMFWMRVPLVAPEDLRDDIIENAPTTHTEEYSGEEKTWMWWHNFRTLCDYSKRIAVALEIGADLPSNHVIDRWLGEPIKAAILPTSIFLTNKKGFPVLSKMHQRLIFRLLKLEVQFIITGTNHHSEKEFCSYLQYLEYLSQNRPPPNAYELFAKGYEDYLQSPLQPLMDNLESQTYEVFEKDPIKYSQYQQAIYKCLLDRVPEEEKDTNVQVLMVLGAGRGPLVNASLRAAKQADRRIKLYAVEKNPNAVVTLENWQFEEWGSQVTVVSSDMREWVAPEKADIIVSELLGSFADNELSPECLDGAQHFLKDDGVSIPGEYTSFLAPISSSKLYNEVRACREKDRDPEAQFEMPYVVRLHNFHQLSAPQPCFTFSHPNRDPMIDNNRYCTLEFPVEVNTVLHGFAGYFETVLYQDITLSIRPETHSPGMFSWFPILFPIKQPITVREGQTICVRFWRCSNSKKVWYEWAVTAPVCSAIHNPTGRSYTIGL

Biological target: PRMT5/MEP50 (Homo sapiens, UniProt O14744)
Test: Methyltransferase activity screen and profiling, PRMT5/MEP50, substrate Histone H2A
Conditions: summary of Table 4 in text

Cl.O=C(O)Cc1cccc(OCCCN(Cc2cccc(C(F)(F)F)c2Cl)CC(c2ccccc2)c2ccccc2)c1 [GW 3965, 3-[3-[[[2-chloro-3-(trifluoromethyl)phenyl]methyl](2,2-diphenylethyl)amino]propoxy]-benzeneacetic acid, monohydrochloride]
affinity for PRMT5/MEP50: 80-80 macromolar
